Data published in article PMC9785969, “Synthesis, Biological Evaluation, and Molecular Dynamics of Carbothioamides Derivatives as Carbonic Anhydrase II and 15-Lipoxygenase Inhibitors” (Molecules, 2022).

Chains of the proteins cited; added tags and fusions are not shown.
UniProt P00921, whole entry: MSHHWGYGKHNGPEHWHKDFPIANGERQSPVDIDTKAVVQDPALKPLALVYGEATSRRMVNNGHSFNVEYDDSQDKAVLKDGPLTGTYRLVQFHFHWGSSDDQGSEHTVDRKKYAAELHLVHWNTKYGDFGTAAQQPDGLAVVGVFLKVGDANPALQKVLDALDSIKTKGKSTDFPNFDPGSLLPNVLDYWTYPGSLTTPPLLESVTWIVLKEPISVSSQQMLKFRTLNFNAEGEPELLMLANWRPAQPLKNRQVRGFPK
UniProt P08170, whole entry: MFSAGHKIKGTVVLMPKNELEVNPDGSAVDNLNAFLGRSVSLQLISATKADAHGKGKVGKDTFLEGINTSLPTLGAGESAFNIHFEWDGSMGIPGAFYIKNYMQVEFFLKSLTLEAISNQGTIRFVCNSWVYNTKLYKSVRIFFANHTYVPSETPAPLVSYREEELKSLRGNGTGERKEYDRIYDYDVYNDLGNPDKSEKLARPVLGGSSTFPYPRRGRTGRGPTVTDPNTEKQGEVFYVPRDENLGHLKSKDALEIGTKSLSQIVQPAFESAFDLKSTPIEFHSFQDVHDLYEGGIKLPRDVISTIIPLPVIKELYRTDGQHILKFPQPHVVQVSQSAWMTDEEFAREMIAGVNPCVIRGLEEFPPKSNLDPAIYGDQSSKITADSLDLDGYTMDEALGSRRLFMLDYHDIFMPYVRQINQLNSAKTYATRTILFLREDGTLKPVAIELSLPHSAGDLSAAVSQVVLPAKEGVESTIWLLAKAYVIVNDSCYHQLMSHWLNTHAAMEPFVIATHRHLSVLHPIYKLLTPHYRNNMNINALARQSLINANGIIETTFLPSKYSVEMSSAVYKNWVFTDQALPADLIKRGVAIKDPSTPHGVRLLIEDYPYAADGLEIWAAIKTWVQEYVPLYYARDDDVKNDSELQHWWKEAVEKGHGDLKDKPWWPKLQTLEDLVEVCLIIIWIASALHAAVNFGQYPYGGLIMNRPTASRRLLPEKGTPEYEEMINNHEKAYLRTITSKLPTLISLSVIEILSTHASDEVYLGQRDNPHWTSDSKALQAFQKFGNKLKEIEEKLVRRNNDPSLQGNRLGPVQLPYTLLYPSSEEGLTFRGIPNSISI

Legend:
[1] = molecular target: bovine carbonic anhydrase II (b-CA II) (Bos taurus, UniProt P00921); assay: Carbonic anhydrase (b-CA II) inhibition assay, p-nitrophenyl acetate hydrolysis; type: biochemical; details: for IC50: read-out: b-CA II IC50 ± SEM, mean of three experiments
15-lipoxygenase (15-LOX) = 15-lipoxygenase (15-LOX) (Glycine max, UniProt P08170); assay: Lipoxygenase (15-LOX) inhibition assay, linoleic acid substrate, absorbance 234 nm; type: biochemical

SMILES	IC50 [1] [nM]	fold less potent towards CA II compared with compound 3h ([1]; vs 3h)	15-LOX inhibition (15-lipoxygenase (15-LOX); final concentration of 100 μM)	IC50 (15-lipoxygenase (15-LOX); read-out: 15-LOX IC50 ± SEM, mean of three experiments) [nM]
NC(=S)N/N=C/c1cccs1	3710	≈ 29 fold	---^b (Compounds showing <50% inhibition)	
NC(=S)N/N=C/c1ccc(Cl)c([N+](=O)[O-])c1	580			540

Structures were worked out from names or drawings and are uncertain.
